In the supplement of paper PMC12067093, “Discovery and optimisation of a covalent ligand for TRIM25 and its application to targeted protein ubiquitination” (Chemical Science, 2025):
Some of the results follow.

By UniProt entry, the sequences of proteins in these tests, tags left out. Where a name states a change or a piece, a line headed by the entry shows the natural chain unless it says otherwise.
UniProt O75530, whole entry, looked up: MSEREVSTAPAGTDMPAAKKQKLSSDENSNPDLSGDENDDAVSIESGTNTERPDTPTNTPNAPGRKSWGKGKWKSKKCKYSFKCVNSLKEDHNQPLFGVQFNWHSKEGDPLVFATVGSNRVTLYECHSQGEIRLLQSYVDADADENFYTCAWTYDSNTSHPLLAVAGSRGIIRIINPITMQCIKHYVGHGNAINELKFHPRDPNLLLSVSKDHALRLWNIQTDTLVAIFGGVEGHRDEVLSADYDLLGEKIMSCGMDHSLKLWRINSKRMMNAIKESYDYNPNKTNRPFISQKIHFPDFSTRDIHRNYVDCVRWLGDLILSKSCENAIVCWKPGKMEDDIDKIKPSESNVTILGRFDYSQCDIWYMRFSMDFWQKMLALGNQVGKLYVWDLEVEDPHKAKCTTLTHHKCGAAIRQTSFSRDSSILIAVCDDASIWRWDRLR
UniProt P49770: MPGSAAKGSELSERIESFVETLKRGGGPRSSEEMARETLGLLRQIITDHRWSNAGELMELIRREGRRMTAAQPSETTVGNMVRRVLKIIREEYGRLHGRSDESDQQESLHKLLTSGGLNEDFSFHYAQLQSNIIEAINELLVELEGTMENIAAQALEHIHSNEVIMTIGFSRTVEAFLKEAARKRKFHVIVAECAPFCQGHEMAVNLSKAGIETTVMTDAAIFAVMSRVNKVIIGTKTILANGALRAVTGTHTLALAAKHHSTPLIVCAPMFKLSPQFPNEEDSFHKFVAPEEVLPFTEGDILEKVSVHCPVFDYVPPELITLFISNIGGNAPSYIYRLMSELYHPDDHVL
UniProt Q9H223: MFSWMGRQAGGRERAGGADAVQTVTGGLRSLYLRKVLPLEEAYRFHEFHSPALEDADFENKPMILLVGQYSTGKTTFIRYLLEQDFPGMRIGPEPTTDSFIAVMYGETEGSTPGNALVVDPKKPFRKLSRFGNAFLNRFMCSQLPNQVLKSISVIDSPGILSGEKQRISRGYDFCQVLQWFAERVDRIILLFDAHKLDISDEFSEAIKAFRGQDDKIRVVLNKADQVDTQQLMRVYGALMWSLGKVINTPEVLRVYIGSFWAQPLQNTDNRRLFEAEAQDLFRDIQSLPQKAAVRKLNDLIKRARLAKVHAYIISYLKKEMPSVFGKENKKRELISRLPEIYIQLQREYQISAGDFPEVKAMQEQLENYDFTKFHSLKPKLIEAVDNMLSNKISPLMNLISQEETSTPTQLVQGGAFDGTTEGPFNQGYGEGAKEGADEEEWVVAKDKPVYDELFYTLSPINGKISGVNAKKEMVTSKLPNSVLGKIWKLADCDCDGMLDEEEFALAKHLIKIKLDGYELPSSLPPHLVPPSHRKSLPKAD
UniProt P41214: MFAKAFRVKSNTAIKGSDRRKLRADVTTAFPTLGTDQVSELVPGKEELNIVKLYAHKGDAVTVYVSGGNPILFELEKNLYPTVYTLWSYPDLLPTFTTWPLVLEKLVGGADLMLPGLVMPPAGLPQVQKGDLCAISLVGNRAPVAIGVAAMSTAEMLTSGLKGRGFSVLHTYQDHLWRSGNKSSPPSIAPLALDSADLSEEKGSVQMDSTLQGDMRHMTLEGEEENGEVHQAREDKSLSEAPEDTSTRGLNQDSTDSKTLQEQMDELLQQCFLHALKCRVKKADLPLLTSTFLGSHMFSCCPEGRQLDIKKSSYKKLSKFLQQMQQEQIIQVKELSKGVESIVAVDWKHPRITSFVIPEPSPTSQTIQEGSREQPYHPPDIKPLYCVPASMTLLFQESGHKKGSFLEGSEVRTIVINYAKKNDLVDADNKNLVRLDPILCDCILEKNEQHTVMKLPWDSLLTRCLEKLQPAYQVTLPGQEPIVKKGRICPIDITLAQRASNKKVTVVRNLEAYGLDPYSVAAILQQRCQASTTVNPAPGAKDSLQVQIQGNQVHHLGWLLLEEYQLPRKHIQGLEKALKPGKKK
UniProt P41567, whole entry, looked up: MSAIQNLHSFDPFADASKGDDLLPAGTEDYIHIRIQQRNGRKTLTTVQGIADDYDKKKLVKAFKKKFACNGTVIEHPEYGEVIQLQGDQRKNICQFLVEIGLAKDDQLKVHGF
UniProt P05198, whole entry, looked up: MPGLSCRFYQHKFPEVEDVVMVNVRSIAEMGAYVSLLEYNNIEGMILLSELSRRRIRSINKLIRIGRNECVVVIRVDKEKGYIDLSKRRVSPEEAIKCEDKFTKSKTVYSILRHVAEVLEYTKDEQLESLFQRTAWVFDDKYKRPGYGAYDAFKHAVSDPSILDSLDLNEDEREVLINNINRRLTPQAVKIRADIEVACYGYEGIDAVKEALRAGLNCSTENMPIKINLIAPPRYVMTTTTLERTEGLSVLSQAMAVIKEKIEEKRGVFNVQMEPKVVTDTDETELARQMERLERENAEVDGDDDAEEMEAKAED
UniProt P47813, whole entry, looked up: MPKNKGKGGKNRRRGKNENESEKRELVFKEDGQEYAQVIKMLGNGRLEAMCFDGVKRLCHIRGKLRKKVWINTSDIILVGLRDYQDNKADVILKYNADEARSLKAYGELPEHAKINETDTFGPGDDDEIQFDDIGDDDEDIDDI
UniProt P55884, whole entry, looked up: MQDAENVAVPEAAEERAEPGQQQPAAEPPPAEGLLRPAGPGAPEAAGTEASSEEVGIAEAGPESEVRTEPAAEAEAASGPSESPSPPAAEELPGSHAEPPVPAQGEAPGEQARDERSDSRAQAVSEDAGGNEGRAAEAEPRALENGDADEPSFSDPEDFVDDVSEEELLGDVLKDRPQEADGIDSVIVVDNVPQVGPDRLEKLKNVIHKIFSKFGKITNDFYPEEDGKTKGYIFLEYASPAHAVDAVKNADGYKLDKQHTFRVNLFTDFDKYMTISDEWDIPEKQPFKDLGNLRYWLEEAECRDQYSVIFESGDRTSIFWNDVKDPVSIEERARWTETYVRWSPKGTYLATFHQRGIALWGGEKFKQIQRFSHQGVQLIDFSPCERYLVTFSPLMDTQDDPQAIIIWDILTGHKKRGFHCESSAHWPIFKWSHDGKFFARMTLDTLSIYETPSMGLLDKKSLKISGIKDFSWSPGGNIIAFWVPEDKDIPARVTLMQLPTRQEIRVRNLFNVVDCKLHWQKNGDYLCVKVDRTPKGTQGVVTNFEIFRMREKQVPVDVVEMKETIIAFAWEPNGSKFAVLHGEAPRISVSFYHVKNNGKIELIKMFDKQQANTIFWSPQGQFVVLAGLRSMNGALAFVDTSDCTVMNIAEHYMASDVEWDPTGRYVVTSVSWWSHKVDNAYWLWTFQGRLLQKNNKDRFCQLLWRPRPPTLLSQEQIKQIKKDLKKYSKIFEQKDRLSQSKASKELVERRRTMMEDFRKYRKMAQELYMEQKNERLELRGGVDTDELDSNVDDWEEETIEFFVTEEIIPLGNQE
UniProt P26641, whole entry, looked up: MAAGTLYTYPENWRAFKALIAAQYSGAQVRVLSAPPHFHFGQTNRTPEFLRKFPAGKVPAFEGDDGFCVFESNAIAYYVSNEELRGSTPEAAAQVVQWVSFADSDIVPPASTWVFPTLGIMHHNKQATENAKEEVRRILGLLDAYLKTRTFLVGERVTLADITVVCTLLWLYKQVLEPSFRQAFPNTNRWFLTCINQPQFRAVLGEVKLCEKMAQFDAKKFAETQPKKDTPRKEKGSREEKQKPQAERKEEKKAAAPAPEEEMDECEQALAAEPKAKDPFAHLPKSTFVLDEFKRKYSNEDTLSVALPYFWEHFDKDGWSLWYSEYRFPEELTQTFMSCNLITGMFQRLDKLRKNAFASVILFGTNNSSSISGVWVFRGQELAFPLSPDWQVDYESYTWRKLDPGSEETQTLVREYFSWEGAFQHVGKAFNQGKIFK
UniProt Q9H8V3: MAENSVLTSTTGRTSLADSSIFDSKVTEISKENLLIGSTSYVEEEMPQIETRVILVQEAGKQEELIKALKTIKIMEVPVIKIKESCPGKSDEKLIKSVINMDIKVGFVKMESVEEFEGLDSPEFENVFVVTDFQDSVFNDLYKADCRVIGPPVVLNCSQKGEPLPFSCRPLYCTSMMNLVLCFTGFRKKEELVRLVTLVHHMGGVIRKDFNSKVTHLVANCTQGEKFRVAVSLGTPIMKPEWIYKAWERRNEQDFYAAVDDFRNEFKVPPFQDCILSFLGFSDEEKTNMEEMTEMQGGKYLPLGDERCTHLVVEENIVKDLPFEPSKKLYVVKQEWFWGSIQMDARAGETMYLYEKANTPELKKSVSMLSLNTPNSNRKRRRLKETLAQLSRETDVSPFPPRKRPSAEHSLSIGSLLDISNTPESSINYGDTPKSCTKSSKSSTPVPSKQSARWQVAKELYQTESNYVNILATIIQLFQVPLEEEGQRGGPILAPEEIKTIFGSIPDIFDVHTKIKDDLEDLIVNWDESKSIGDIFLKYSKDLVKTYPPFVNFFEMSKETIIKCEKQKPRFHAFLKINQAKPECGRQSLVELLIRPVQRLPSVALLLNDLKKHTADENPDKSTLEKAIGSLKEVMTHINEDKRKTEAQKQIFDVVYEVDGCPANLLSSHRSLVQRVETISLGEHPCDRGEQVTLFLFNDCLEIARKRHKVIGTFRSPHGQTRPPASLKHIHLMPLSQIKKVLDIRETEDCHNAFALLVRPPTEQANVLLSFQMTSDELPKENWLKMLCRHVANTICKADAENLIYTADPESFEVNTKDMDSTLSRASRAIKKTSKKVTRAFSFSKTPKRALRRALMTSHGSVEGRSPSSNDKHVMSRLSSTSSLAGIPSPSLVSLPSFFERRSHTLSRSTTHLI
UniProt Q9H9B1: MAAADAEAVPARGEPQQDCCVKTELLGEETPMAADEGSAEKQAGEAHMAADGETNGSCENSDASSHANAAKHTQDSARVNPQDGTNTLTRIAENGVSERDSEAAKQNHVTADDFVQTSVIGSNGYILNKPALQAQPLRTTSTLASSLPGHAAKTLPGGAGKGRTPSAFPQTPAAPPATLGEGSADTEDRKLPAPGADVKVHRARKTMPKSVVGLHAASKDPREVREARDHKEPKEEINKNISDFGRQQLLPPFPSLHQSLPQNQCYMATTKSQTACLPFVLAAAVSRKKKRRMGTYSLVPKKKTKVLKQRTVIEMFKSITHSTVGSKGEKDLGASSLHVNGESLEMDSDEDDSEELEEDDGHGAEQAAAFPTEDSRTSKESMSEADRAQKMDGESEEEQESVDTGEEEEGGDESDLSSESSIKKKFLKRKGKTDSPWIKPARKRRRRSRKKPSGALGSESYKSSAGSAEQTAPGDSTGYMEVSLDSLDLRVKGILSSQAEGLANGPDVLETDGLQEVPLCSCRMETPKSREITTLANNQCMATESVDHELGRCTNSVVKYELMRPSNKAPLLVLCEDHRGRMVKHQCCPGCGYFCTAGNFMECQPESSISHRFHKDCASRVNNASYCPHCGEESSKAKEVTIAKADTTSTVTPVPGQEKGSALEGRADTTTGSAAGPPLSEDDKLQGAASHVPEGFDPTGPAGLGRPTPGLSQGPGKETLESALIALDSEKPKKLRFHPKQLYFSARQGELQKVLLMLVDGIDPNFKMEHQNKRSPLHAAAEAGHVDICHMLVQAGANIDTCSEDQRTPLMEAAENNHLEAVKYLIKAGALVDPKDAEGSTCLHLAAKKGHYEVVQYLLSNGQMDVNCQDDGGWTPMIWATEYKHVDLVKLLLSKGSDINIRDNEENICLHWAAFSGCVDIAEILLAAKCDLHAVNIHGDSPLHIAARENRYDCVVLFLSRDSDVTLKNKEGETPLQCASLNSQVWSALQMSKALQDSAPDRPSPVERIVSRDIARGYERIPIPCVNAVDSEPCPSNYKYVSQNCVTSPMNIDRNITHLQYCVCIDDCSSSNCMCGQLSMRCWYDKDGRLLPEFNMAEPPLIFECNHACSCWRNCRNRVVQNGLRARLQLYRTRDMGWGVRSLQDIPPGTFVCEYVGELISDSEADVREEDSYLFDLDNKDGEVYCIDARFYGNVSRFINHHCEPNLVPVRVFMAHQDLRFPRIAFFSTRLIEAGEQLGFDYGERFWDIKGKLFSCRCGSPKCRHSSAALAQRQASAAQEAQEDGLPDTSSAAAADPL

Compound: Cc1cc(ccc1-c1ccccc1)C(=O)N1CCCN(CC1)C(=O)CCl [compound 10]
Test: probe-labelled cysteine peptide fold change vs DMSO (competition) (log2 fold change); higher = less target engagement (more negative = stronger competition)
Settings: 10 µM; THP-1; incubation time: 4 h
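Also: competitive profiling in live THP-1 cells: cysteine peptides tagged with an iodoacetamide desthiobiotin (IA-DTB) probe, intensity after compound treatment relative to DMSO-treated cells.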

Target	probe-labelled cysteine peptide fold change
EED_O75530_126_VTLYECHSQGEIR (UniProt O75530)	0.192
EIF2B2_P49770_194+198_FHVIVAECAPFCQGHEMAVNLSK (UniProt P49770)	0.0606
EHD4_Q9H223_141_FMCSQLPNQVLK (UniProt Q9H223)	-0.098
EIF2D_P41214_386_EQPYHPPDIKPLYCVPASMTLLFQESGHK (UniProt P41214)	0.0939
EFL1_Q7Z2Z2_646_LLNQADPCVQILIQETGEHVLVTAGEVHLQR (UniProt Q7Z2Z2)	0.119
EIF1_P41567_94_NICQFLVEIGLAK (UniProt P41567)	0.68
EIF2D_P41214_442_LDPILCDCILEK (UniProt P41214)	0.0109
EIF2S1_P05198_70_IGRNECVVVIR (UniProt P05198)	-0.0195
EIF1AX_P47813_51_LEAMCFDGVK (UniProt P47813)	0.115
EIF3B_P55884_302_YWLEEAECRDQYSVIFESGDR (UniProt P55884)	-0.143
EIF1_P41567_94_KNICQFLVEIGLAK (UniProt P41567)	0.411
EEF1G_P26641_266_KAAAPAPEEEMDECEQALAAEPK (UniProt P26641)	-0.218
ECPAS_Q5VYK3_1420_SCAFAMGHLVR (UniProt Q5VYK3)	0.0125
ECT2_Q9H8V3_157_VIGPPVVLNCSQK (UniProt Q9H8V3)	0.0827
EEF1G_P26641_339_FPEELTQTFMSCNLITGMFQR (UniProt P26641)	0.391
EHMT1_Q9H9B1_627_VNNASYCPHCGEESSK (UniProt Q9H9B1)	0.115

Reformatted: results already given

| Target | probe-labelled cysteine peptide fold change |
| --- | --- |
| EIF2S1_P05198_70_IGRNECVVVIR (UniProt P05198) | -0.0195 |
| EIF1AX_P47813_51_LEAMCFDGVK (UniProt P47813) | 0.115 |
| EIF3B_P55884_302_YWLEEAECRDQYSVIFESGDR (UniProt P55884) | -0.143 |
| EIF1_P41567_94_KNICQFLVEIGLAK (UniProt P41567) | 0.411 |
